From patent US7387779B2 (Beth Israel Deaconess Medical Center, priority 1998, dated 2008)
Where a sequence shows no end group, the ends are not given.

Test: peptide synthesis
Conditions: whole synthesis

## KQRFTTMPFLFCNVNDVCNFASRNDYS
  final HPLC purity: greater than 90% purity
